Among the data in doi:10.1101/2021.01.28.428634 are binding values, retold here.

Protein sequences, listed by entry. Tags and fused reporters are not part of them. Lines headed by an entry give the natural chain unless they say otherwise; changes in a name come on top.
UniProt Q2KN98: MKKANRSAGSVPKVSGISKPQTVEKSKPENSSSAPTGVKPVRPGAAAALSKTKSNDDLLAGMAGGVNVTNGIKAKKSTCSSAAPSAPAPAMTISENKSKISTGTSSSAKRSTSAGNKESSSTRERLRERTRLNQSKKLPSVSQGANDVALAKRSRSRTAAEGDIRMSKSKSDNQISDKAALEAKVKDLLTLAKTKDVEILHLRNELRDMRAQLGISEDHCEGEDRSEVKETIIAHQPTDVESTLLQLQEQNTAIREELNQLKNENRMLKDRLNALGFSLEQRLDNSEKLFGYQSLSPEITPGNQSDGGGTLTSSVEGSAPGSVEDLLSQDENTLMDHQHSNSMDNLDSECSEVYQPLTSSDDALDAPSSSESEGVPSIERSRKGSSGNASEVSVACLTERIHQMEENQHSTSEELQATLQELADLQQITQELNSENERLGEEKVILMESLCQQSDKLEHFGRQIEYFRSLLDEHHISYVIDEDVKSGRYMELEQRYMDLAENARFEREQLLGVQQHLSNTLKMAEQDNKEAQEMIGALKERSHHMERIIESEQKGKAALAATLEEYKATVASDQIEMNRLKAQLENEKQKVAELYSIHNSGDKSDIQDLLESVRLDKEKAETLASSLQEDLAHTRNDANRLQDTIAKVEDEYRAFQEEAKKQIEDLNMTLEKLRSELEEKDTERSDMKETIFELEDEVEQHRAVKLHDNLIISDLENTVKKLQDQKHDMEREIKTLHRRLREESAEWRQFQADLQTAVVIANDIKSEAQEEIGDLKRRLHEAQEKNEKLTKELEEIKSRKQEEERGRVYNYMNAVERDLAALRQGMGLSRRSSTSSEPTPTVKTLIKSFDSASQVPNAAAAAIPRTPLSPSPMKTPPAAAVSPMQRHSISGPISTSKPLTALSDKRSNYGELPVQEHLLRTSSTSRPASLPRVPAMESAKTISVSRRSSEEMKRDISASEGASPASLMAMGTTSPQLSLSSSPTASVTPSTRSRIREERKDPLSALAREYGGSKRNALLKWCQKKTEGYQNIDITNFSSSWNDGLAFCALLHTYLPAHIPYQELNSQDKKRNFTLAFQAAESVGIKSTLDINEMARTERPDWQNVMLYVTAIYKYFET
UniProt Q61879: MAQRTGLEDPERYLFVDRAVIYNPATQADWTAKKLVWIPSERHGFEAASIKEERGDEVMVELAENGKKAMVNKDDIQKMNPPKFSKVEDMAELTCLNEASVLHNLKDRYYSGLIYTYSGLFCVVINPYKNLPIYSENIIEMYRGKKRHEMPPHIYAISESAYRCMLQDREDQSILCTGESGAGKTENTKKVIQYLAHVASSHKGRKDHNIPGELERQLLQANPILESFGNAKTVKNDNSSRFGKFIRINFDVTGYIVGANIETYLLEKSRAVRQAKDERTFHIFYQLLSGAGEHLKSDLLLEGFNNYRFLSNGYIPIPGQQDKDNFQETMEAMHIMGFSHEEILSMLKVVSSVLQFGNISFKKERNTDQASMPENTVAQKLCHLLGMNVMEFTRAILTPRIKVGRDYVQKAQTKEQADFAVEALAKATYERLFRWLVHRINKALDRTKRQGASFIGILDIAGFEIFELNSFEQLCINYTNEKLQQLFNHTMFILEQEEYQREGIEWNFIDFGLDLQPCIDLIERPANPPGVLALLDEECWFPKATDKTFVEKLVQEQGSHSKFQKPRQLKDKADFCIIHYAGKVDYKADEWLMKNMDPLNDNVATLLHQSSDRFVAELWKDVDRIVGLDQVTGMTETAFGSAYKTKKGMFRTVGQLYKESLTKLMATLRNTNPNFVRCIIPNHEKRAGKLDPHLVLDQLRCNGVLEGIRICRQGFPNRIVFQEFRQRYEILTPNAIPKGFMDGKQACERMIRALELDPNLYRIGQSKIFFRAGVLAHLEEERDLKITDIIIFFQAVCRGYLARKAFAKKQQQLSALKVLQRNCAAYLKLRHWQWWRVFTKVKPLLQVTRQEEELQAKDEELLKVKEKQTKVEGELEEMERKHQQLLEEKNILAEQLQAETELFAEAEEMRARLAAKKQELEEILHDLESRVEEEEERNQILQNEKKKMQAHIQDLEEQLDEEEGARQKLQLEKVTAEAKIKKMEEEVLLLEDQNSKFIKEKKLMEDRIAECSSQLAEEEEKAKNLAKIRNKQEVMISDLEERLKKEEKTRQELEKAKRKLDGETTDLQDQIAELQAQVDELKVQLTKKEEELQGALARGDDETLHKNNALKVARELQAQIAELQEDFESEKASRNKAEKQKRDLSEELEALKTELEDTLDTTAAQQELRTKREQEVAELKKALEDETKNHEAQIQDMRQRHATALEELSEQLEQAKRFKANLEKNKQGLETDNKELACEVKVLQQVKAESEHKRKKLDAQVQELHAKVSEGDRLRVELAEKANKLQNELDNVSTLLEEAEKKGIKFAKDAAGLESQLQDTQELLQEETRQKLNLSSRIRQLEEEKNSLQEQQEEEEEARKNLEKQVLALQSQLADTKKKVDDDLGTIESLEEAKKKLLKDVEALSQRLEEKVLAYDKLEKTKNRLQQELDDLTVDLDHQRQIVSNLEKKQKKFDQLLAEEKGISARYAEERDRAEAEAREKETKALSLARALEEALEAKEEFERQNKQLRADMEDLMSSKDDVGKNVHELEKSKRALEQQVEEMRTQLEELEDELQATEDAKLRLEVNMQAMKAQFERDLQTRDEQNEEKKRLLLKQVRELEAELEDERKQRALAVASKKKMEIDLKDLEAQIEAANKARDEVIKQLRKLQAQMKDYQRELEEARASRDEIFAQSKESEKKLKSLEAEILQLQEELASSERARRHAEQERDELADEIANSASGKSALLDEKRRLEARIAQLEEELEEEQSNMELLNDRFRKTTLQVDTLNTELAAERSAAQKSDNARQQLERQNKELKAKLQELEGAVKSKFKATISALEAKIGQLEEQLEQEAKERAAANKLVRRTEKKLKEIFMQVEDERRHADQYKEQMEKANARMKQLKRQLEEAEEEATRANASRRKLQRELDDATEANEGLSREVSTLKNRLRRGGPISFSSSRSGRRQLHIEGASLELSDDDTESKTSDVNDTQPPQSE

Results are given in words; binding and its absence hold for the method and conditions named. Binding seen in cells or lysates may run through a third protein. Binding can be weak; no strength is given.

The target in this assay is SPECC1L-ΔCCD2 (mouse (endogenous in embryonic tissue)) (UniProt Q2KN98). Description: co-IP.

In the case of “non-muscle myosin IIB (NM-IIB) component MYH10 (from UniProt Q61879 1-1976)”, the binding entry is on record as “binds”.
